Assay results from PubChem BioAssay AID504444 (National Center for Advancing Translational Sciences (NCATS), 2011).
About 7,500 (2.1%) of roughly 360,000 compounds were called active. The inconclusive results got no clear call from the source; some entries with a clear call stand among them for comparison. Calls come from the whole dose curve; as a rule, active = well fitted inhibition curve with a large enough effect; inconclusive = small, poorly fitted or top-dose-only effect, or effect the other way; inactive = flat fitted curve, though single readings scatter. Potencies of inconclusive entries are doubtful fits and often do not repeat.

Experiment: Nrf2 qHTS screen for inhibitors; note: nearly all actives have a fitted effect of over 60% in size
Conditions: A549 ARE-Fluc reporter, luciferase luminescence, 18-24 h; series mostly up to 46 µM
Method in brief: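 A549 ARE_Fluc cells (5000/well, 5% FBS OPTI-MEM) pre-incubated 2 h, then treated with compounds 18-24 h at 37C/5% CO2 in concentration-response. CellTiter-Fluor viability read first; BugLite luciferase luminescence after 15 min at room temperature gives Nrf2 activity.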
Potency is the fitted concentration of half-maximal effect.

SMILES	Potency
Cc1cc(Cl)ccc1NS(=O)(=O)c1ccc2c(c1)CC(C)N2C(=O)C1CCC1 (stereo unspecified)	active: 20.6 µM
O=C(Nc1ccc(C(=O)N2CCC(O)(c3ccc(Cl)c(C(F)(F)F)c3)CC2)cc1)c1ccc(Br)o1	inconclusive: 25.9 µM [falling, single point]
CC(=O)Nc1ccc(NS(=O)(=O)c2cc([N+](=O)[O-])ccc2C)cc1	inactive
CC(=O)NC(Cc1c[nH]c2ccccc12)C(=O)OCC(=O)N1CCCCCC1 (stereo unspecified)	inconclusive: 10.3 µM [activator, partial curve]
CCn1cc2nc(SCc3ccc(F)cc3)n(Cc3ccc(Cl)cc3)c(=O)c2n1	inconclusive: 2.59 µM [falling, full curve]
COc1cc(/C=N/NC(=O)c2sc3nc(C)cc(C)c3c2N)ccc1O	inconclusive: 29.1 µM [falling, single point]
Oc1[nH]c2ccccc2c1C=Nc1ccc2c(c1)OCO2	inconclusive: 0.58 µM [activator, full curve]
CC(=O)Nc1ccc(Nc2nnc(-c3ccc(C)c(S(N)(=O)=O)c3)c3ccccc23)cc1	inconclusive: 1.46 µM [falling, full curve]
O=C(O)c1ccc2cc(-c3ccccc3)[nH]c2c1	inconclusive: 7.31 µM [activator, partial curve]
CCOc1cc(/C=C2\SC(=S)N(NS(=O)(=O)c3ccc(C)cc3)C2=O)ccc1O	inactive
CC(C)NC(=O)CN1CCN(C(=O)CCl)CC1	inconclusive: 4.11 µM [activator, full curve, poor fit]
CC(C)(C)OC(=O)C[C@@H]1C/C=C\C[C@@H](CC(=O)N(CCO)Cc2ccccc2)C(=O)NC[C@H](c2ccccc2)OC1=O	inconclusive: 29.1 µM [falling, single point]
COc1ccc2c(c1)c1c(c(=O)n(Cc3ccccc3)c(=O)n1CC(=O)Nc1ccc(C)cc1C)n2C	inconclusive: 9.2 µM [activator, partial curve, poor fit]
CCOC(=O)N1CCC(NC(=O)C2CCN(C(=O)c3cc4sccc4n3CC)CC2)CC1	inconclusive: 18.4 µM [falling, partial curve]
COC(=O)c1ccccc1Sc1snnc1C	inconclusive: 6.51 µM [activator, partial curve, poor fit]
Cc1cnc(C(=O)Nc2ccc(N3CCCCC3)cc2)cn1	inconclusive: 13 µM [activator, partial curve]
CCOc1ccccc1-n1nnnc1SCC(=O)NC(=O)Nc1ccc2c(c1)OCCO2	inconclusive: 29.1 µM [falling, single point]
CCC(=O)N1N=C(c2c(-c3ccccc3)c3cc(Cl)ccc3[nH]c2=O)CC1c1ccco1 (stereo unspecified)	active: 23.1 µM
CCC1CCCCN1C(=O)COc1cc(=O)n(C)c2ccccc12 (stereo unspecified)	inconclusive: 16.4 µM [falling, partial curve, poor fit]
CSc1cccc(NC(=O)C2CCN(S(=O)(=O)c3ccc4[nH]c5c(c4c3)CCCCC5)CC2)c1	inconclusive: 2.91 µM [falling, full curve]
CC(C)CC(=O)/C=C/n1c(=S)oc2ccccc21	inactive

SMILES	Potency
COc1cc(NC(=O)c2cc(-c3ccccc3)on2)cc(OC)c1OC	inconclusive: 2.59 µM [falling, partial curve, poor fit]
O=C(CCc1ccccc1)N=C1SC2CS(=O)(=O)CC2N1c1ccccc1 (stereo unspecified)	inconclusive: 16.4 µM [falling, single point]
O=C(NCC(=O)N1CCCCCC1)c1ccc(Cl)cc1	inconclusive: 9.2 µM [activator, partial curve]
CCCN(CC(=O)Nc1ccccc1C)C(=O)CCl	inconclusive: 29.1 µM [falling, single point]
O=C(COC(=O)c1cc(S(=O)(=O)N2CCCCC2)ccc1N1CCOCC1)NCCc1ccc(F)cc1	inconclusive: 6.51 µM [falling, partial curve, poor fit]
CCOc1ccc(S(=O)(=O)N2CCCCC2)cc1NC(=O)CN1CCCC1c1cccs1 (stereo unspecified)	active: 8.2 µM
COc1ccccc1C1CCN(c2ccc([N+](=O)[O-])c(OC)c2)CC1	inconclusive: 32.6 µM [falling, single point]
O=C(CCCNc1ccccc1)N/N=C/c1cccs1	inconclusive: 8.2 µM [activator, partial curve, poor fit]
CC(C)c1ccc(NC(=O)C2=CC=CN3CCS(=O)(=O)N=C23)cc1	inconclusive: 1.03 µM [activator, partial curve]
O=C(Nc1ccc(S(=O)(=O)N(Cc2ccccc2)c2ccccc2)cc1)c1ccc([N+](=O)[O-])cc1	inactive
Cc1cccc2c(N=Nc3ccccc3)c(O)[nH]c12	inconclusive: 1.46 µM [activator, full curve, poor fit]
Cn1ncc(Cl)c1C(=O)Nc1ccc(Cl)cn1	inconclusive: 18.4 µM [activator, single point]
CSc1ccc(C2N=C(c3ccccc3)NO2)cc1 (stereo unspecified)	inconclusive: 25.9 µM [activator, partial curve]
O=C(Cc1ccc(S(=O)(=O)N2CCOCC2)s1)Nc1ccc(N2CCOCC2)cc1	inactive
O=C(NCc1ccccc1Cl)c1ccc(NC(=O)N2CCSc3ncccc32)cc1	inactive
O=C(O)c1ccc2ncsc2c1	inconclusive: 29.1 µM [activator, single point]
COc1cccc(N2CCN(C(=O)c3cc4c(=O)n(Cc5ccco5)ccc4nc3C)CC2)c1	inconclusive: 29.1 µM [activator, single point]
COc1ccc(CCNCc2ccc(OCC(=O)N3CCCCC3)c(OC)c2)cc1OC	inconclusive: 23.1 µM [falling, partial curve, poor fit]
Clc1ccccc1N=C1NN=C(c2cccs2)CS1	inconclusive: 0.517 µM [activator, full curve, poor fit]
O=C(COC(=O)c1ccc[nH]c1=O)NCC12CC3CC(CC(C3)C1)C2	inconclusive: 8.2 µM [activator, partial curve, poor fit]

Some of the entries above in a different format.
SMILES,Potency
COc1cc(/C=N/NC(=O)c2sc3nc(C)cc(C)c3c2N)ccc1O,"inconclusive: 29.1 µM [falling, single point]"
Oc1[nH]c2ccccc2c1C=Nc1ccc2c(c1)OCO2,"inconclusive: 0.58 µM [activator, full curve]"
CC(=O)Nc1ccc(Nc2nnc(-c3ccc(C)c(S(N)(=O)=O)c3)c3ccccc23)cc1,"inconclusive: 1.46 µM [falling, full curve]"
O=C(O)c1ccc2cc(-c3ccccc3)[nH]c2c1,"inconclusive: 7.31 µM [activator, partial curve]"
CCOc1cc(/C=C2\SC(=S)N(NS(=O)(=O)c3ccc(C)cc3)C2=O)ccc1O,inactive
CC(C)NC(=O)CN1CCN(C(=O)CCl)CC1,"inconclusive: 4.11 µM [activator, full curve, poor fit]"
CC(C)(C)OC(=O)C[C@@H]1C/C=C\C[C@@H](CC(=O)N(CCO)Cc2ccccc2)C(=O)NC[C@H](c2ccccc2)OC1=O,"inconclusive: 29.1 µM [falling, single point]"
COc1ccc2c(c1)c1c(c(=O)n(Cc3ccccc3)c(=O)n1CC(=O)Nc1ccc(C)cc1C)n2C,"inconclusive: 9.2 µM [activator, partial curve, poor fit]"
CCOC(=O)N1CCC(NC(=O)C2CCN(C(=O)c3cc4sccc4n3CC)CC2)CC1,"inconclusive: 18.4 µM [falling, partial curve]"
COC(=O)c1ccccc1Sc1snnc1C,"inconclusive: 6.51 µM [activator, partial curve, poor fit]"
Cc1cnc(C(=O)Nc2ccc(N3CCCCC3)cc2)cn1,"inconclusive: 13 µM [activator, partial curve]"
CCOc1ccccc1-n1nnnc1SCC(=O)NC(=O)Nc1ccc2c(c1)OCCO2,"inconclusive: 29.1 µM [falling, single point]"
